# Results published in publication PMC12670160, “A drug-repurposing screen of FDA- and EMA-approved drugs identifies two NF-κB inhibitors active against eumycetoma” (Journal of Antimicrobial Chemotherapy, 2025).
# Where a name gives a salt, the structure may show the parent alone. Read-outs that look alike come from different tables or passages of the source. About 130 (2.5%) of roughly 5,300 compounds showed an effect of 50% or more. The list shows a part of the results. Numbered stars: 1 amine (or outer) side, 2 acyl side, 3 side chain; on linkers, the order of the positions; unused ones are H or OH. Bridge positions count the residues as written; N and C are the ends. Square brackets hold non-standard residues; d marks the D form. Peptide text beside a SMILES is read from it. I, II: the chains in the order shown. Actinocin(9to1) = Cc1c2oc3c(C)ccc(C(=O)[*:1])c3nc-2c(C(=O)[*:2])c(N)c1=O; NMeV = CN[C@H](C(=O)O)C(C)C; Sar = CNCC(=O)O
# System: M. mycetomatis strain mm55
# Details: primary screen, metabolic activity vs growth control, 96 h, 2 µM, inhibitor
Compound,% viability,% viability (Madurella mycetomatis metabolic activity at 2µM (%))
"CN1CCN(c2cc3c(cc2F)c(=O)c(C(=O)O)cn3-c2ccc(F)cc2)CC1 [ONC0002850, difloxacin hydrochloride]",104.7%,
"O=C(O)CCCC[C@@H]1SC[C@@H]2NC(=O)N[C@@H]21 [ONC0000517, biotin]",93.92%,
"Cc1cccc(OCC(O)CNC(C)(C)C)c1C (centres unmarked) [ONC0002362, xibenolol]",46.41%,
"C[C@H](Nc1ncnc2[nH]cnc12)c1cc2cccc(Cl)c2c(=O)n1-c1ccccc1 [ONC0004561, duvelisib ipi145 ink1197]",69.33%,
"CCc1ccc(C(=O)C(C)CN2CCCCC2)cc1 (centres unmarked) [ONC0002786, eperisone hcl]",132%,
"FCc1ccc(OCCOc2ccc(Cl)cc2Cl)c(Cl)n1 [ONC0000095, cym50260]",81.52%,
"CC(C)(C)c1ccc2cc(C#N)c(C#N)cc2c1 [ONC0003604, brd9876]",97.5%,
"CC(C)Cc1ccc(C(C)C(=O)O)cc1 (centres unmarked) [ONC0000377, ibuprofen]",74.77%,
"COc1ccc(CN2CCN(C(c3ccc(F)cc3)c3ccc(F)cc3)CC2)c(OC)c1OC [ONC0004196, lomerizine hydrochloride]",80.31%,
"CC1(O)C(O)C(CO)OC1n1ccc(N)nc1=O (centres unmarked) [ONC0003575, nm107 2cmethylcytidine]",89.59%,
"CN(C(=O)c1c(O)c2ccccc2n(C)c1=O)c1ccccc1 [ONC0001699, roquinimex]",64.36%,
"C=C1NC[C@H](O)[C@@H](C(=O)O)N1 [ONC0005453, 5hydroxyectoine]",82.42%,
"COCCc1ccc(OCC(O)CNC(C)C)cc1 (centres unmarked) [ONC0000497, metoprolol tartrate]",61.5%,
"CCN1CCN(Cc2ccc(Nc3ncc(F)c(-c4cc(F)c5nc(C)n(C(C)C)c5c4)n3)nc2)CC1 [ONC0004445, abemaciclib ly2835219]",113.8%,
"Nc1nc2[nH]cc(CCc3ccc(C(=O)N[C@@H](CCC(=O)O)C(=O)O)cc3)c2c(=O)[nH]1 [ONC0000505, pemetrexed]",97.55%,
"COc1ccc2c(c1)C(C(=O)N(Cc1ccc(N(C)C)cc1)c1ccc(C(C)C)cc1)CCC2 (centres unmarked) [ONC0001356, w54011]",87.64%,
"COc1ccc(C(=O)c2ccccc2O)c(O)c1 [ONC0000693, dioxybenzone]",133.1%,
"Cc1ccc(OCCSc2ncccn2)c(Br)c1 [ONC0003579, zln024]",91.48%,
"C[C@@H]1COCCN1c1cc(=O)n2c(n1)N(Cc1cncc(Cl)c1)[C@H](C(F)(F)F)CC2 [ONC0002229, sar405]",105.5%,
"COc1ccc(Cl)cc1[C@]1(F)C(=O)Nc2cc(C(F)(F)F)ccc21 [ONC0000893, flindokalner]",76.01%,
"CC(=O)Oc1ccccc1C(=O)Oc1cccc(CO[N+](=O)[O-])c1 [ONC0003513, noasa]",61.82%,

Compound,% viability,% viability (Madurella mycetomatis metabolic activity at 2µM (%))
"C[C@]12CCC(=O)C=C1CCC1C2[C@@H](O)C[C@@]2(C)C1CC[C@]2(O)C(=O)COC(=O)CCC(=O)O (some centres unmarked) [ONC0000363, hydrocortisone hemisuccinate]",75.53%,
"O=C(OCCOCCO)c1ccccc1Nc1cccc(C(F)(F)F)c1 [ONC0002216, etofenamate]",64.05%,
"Cc1cc(C)c2c(N)c(C(=O)NCc3ccc(Cl)cc3)sc2n1 [ONC0002558, vu10010]",70.5%,
"COc1ccc2cccc(N3CCN(CCNC(=O)c4ccc(F)cc4)CC3)c2c1 [ONC0002715, s14506]",83.12%,
"Fc1ccc2c(CCNCc3cccc(OCC(F)(F)C(F)F)c3)c[nH]c2c1 [ONC0001771, idalopirdine hydrochloride]",93.48%,
"O=C(c1cncc(Br)c1)N1CCC(N2CCCC2)CC1 [ONC0005156, unc669]",69.77%,
"O=C(Nc1ccc([N+](=O)[O-])cc1O)Nc1ccccc1Br [ONC0001308, sb225002]",58.94%,
"Cc1cnc(C(=O)O)c[n+]1[O-] [ONC0004232, acipimox]",58.97%,
"CC(=O)Nc1cccc(O)c1 [ONC0003258, metacetamol]",53.98%,
"O=c1c(O)c(-c2ccc(O)c(O)c2)oc2cc(O)cc(O)c12 [ONC0001264, quercetin]",90.95%,
"Cc1cc(S(=O)(=O)O)c2c(C)ccc(C(C)C)cc1-2 [ONC0003383, sodium gualenate]",92.53%,
"C[N+](C)(C)CCOP(=O)([O-])OC[C@H](O)CO [ONC0001883, snglycero3phosphocholine]",65.85%,
"O=[N+]([O-])c1ccc2nc(COCc3nc4ccc([N+](=O)[O-])cc4[nH]3)[nH]c2c1 [ONC0002515, vu591]",61.47%,
CN=C(N)NC(=O)Nc1c(C)cccc1C [ONC0003862],68.76%,
"CC/C(=C(\c1ccccc1)c1ccc(OCCN(C)C)cc1)c1ccccc1 [ONC0000595, tamoxifen citrate]",106.5%,
"CCc1oc2ccccc2c1C(=O)c1cc(Br)c(O)c(Br)c1 [ONC0004022, benzbromarone]",98.48%,
"Cn1cc(-c2ccc(S(=O)(=O)n3ccc(/C=C/C(=O)Nc4ccccc4N)c3)cc2)cn1 [ONC0005104, 4sc202]",74.64%,
"c1ccc(-c2n[nH]c3c2oc2ccccc23)cc1 [ONC0001593, gtp14564]",74.59%,
"NC(=O)C1=CN([C@@H]2O[C@H](COP(=O)(O)OP(=O)(O)OC[C@H]3O[C@@H](n4cnc5c(N)ncnc54)[C@H](O)[C@@H]3O)[C@@H](O)[C@H]2O)C=CC1 [ONC0002947, coenzymei]",72.84%,
"Cc1c2oc3c(C)ccc(C(=O)N[C@@H]4C(=O)N[C@H](C(C)C)C(=O)N5CCC[C@H]5C(=O)N(C)CC(=O)N(C)[C@@H](C(C)C)C(=O)O[C@@H]4C)c3nc-2c(C(=O)N[C@@H]2C(=O)N[C@H](C(C)C)C(=O)N3CCC[C@H]3C(=O)N(C)CC(=O)N(C)[C@@H](C(C)C)C(=O)O[C@@H]2C)c(N)c1=O [ONC0002258, actinomycin d] (I: T[dV]P[Sar][NMeV] / II: T[dV]P[Sar][NMeV]; ester I:1-I:C, II:1-II:C; linker I:N-II:N via Actinocin(9to1))",,100.3%

# 3 entries from above, reformatted:
Compound	% viability	% viability (Madurella mycetomatis metabolic activity at 2µM (%))
O=C(OCCOCCO)c1ccccc1Nc1cccc(C(F)(F)F)c1 [ONC0002216, etofenamate]	64.05%	
CN=C(N)NC(=O)Nc1c(C)cccc1C [ONC0003862]	68.76%	
Cc1c2oc3c(C)ccc(C(=O)N[C@@H]4C(=O)N[C@H](C(C)C)C(=O)N5CCC[C@H]5C(=O)N(C)CC(=O)N(C)[C@@H](C(C)C)C(=O)O[C@@H]4C)c3nc-2c(C(=O)N[C@@H]2C(=O)N[C@H](C(C)C)C(=O)N3CCC[C@H]3C(=O)N(C)CC(=O)N(C)[C@@H](C(C)C)C(=O)O[C@@H]2C)c(N)c1=O [ONC0002258, actinomycin d] (I: T[dV]P[Sar][NMeV] / II: T[dV]P[Sar][NMeV]; ester I:1-I:C, II:1-II:C; linker I:N-II:N via Actinocin(9to1))		100.3%
